Measured values from PubChem BioAssay AID330 (DTP/NCI, 2004).
The list shows only some results of the screen, not a fair sample: it is rich in T/C values a quarter to a half above the control, in often repeated tests (any T/C) and in doses without a T/C. Other doses and runs of a compound stand elsewhere. T/C: endpoint of the treated group in % of that of the vehicle group. Some doses have a count of surviving animals in place of a T/C: the source files T/C as zero there, which appears to mark a toxic dose or a test without result, not a measured value. Some doses without a T/C left all or most animals alive at the check, yet need not have been tolerated: survival well below the control is almost never listed, so the zero probably covers shortened survival too. Counts of survivors are from the toxicity check (mostly the fifth day) where no day follows; animals may have died later. Schedules are NCI's codes, taken here to give the interval after Q, in days (D) or hours (H), and the number of doses after X. Some entries hold several experiments; the values are given in rising order. For survival time, this PubChem deposit counts one and a half times the control or more as active, and values a quarter to a half above the control carry no call in these data; other NCI protocols may use other cut-offs. Some T/C values carry the count of animals alive at the toxicity check (mostly the fifth day); where none is given, no animal had died by that day.

Test system: P388 leukemia ip, CD2F1 mice, survival T/C
Assay: NCI In Vivo Anticancer Drug Screen. Data for tumor model P388 Leukemia (intraperitoneal) in CD2F1 (CDF1) mice
Conditions: T/C endpoint: median survival time, higher T/C = longer survival
[1] = dose: 200.0 mg/kg/injection, schedule: Q01DX009 (ip), vehicle: saline with Tween-80

COc1ccc2ccc(/C=C/[N+](=O)[O-])cc2c1OC was tested, and the T/C (dose: 25.0 mg/kg/injection, schedule: Q01DX009 (ip), vehicle: other) was 130 % of control, the survivor count (dose: 50.0 mg/kg/injection, schedule: Q01DX009 (ip), vehicle: other) was 0 of 6 and 2 of 6 and the survivor count (dose: 100.0 mg/kg/injection, schedule: Q01DX009 (ip), vehicle: other) was 1 of 6. The survivor count (dose: 200.0 mg/kg/injection, schedule: Q01DX009 (ip), vehicle: other) was 1 of 6 and the survivor count (dose: 400.0 mg/kg/injection, schedule: Q01DX009 (ip), vehicle: other) was 0 of 6.
In the case of CN(C)c1ccc(/C=C/c2nccc3ccccc23)cc1, the survivor count (dose: 50.0 mg/kg/injection, schedule: Q01DX009 (ip), vehicle: saline with Tween-80) is reported as 5 of 6, the survivor count (dose: 100.0 mg/kg/injection, schedule: Q01DX009 (ip), vehicle: saline with Tween-80) is reported as 0 of 6 and the survivor count [1] is reported as 0 of 6. The survivor count (dose: 400.0 mg/kg/injection, schedule: Q01DX009 (ip), vehicle: saline with Tween-80) was 0 of 6.
For Cc1cc(C2c3ccccc3-c3ccccc32)cc(C)c1O, the survivor count (dose: 15.0 mg/kg/injection, schedule: Q01DX005 (ip), vehicle: saline with Tween-80) was 6 of 6, the survivor count (dose: 30.0 mg/kg/injection, schedule: Q01DX005 (ip), vehicle: saline with Tween-80) was 6 of 6 and the survivor count (dose: 60.0 mg/kg/injection, schedule: Q01DX005 (ip), vehicle: saline with Tween-80) was 6 of 6. For the same compound, the survivor count (dose: 120.0 mg/kg/injection, schedule: Q01DX005 (ip), vehicle: saline with Tween-80) was 6 of 6.
For CC12C(=O)C(c3ccccc3)(C(c3ccccc3)=C1c1ccccc1)C1OC(=O)OC12 (stereo not drawn), the survivor count [1] was 6 of 6.
With CC(C)CC1N=C(NN=C(CCl)CCl)OP1(=O)NCCCCCCNP1(=O)OC(NN=C(CCl)CCl)=NC1CC(C)C (stereo not drawn) the survivor count (dose: 120.0 mg/kg/injection, schedule: Q01DX005 (ip), vehicle: Klucel (hydroxypropylcellulose) (HPC)) was 3 of 6 and the survivor count (dose: 240.0 mg/kg/injection, schedule: Q01DX005 (ip), vehicle: Klucel (hydroxypropylcellulose) (HPC)) was 0 of 6.
CC1=CC(C)(C)Nc2ccc(Cc3ccc4c(c3)C(C)=CC(C)(C)N4)cc21 was tested, and the T/C (dose: 1920.0 mg/kg/injection, schedule: Q01DX001 (ip), vehicle: olive oil, sesame oil, peanut oil, evaluated on day 5) was 123 and 135 % of control, the T/C (dose: 1920.0 mg/kg/injection, schedule: Q01DX001 (ip), vehicle: olive oil, sesame oil, peanut oil, evaluated on day 10) was 104 [8 of 9 alive] and 109 % of control and the T/C (dose: 2400.0 mg/kg/injection, schedule: Q01DX001 (ip), vehicle: olive oil, sesame oil, peanut oil, evaluated on day 5) was 131 and 133 % of control. For the same compound, the T/C (dose: 2400.0 mg/kg/injection, schedule: Q01DX001 (ip), vehicle: olive oil, sesame oil, peanut oil, evaluated on day 10) was 105 [8 of 9 alive] and 112 % of control, the T/C (dose: 3000.0 mg/kg/injection, schedule: Q01DX001 (ip), vehicle: olive oil, sesame oil, peanut oil, evaluated on day 5) was 63 [4 of 7 alive] and 136 % of control and the T/C (dose: 3000.0 mg/kg/injection, schedule: Q01DX001 (ip), vehicle: olive oil, sesame oil, peanut oil, evaluated on day 10) was 95 [2 of 4 alive] and 113 % of control. The T/C (dose: 3000.0 mg/kg/injection, schedule: Q10HX001 (ip), vehicle: olive oil, sesame oil, peanut oil) was 131 % of control [4 of 7 alive].
For Cc1cc(C=C2C(=O)NC(=O)NC2=O)cc(C)c1O, the survivor count (dose: 200.0 mg/kg/injection, schedule: Q01DX005 (ip), vehicle: saline with Tween-80) was 3 of 5.
CC1C=CCC(C)(C)C1 (stereo not drawn) was tested, and the survivor count (dose: 400.0 mg/kg/injection, schedule: Q01DX009 (ip), vehicle: Klucel (hydroxypropylcellulose) (HPC)) was 6 of 6.
In the case of O=C(O)c1oc2ccccc2c1C=C(c1ccccc1)c1ccccc1, the survivor count [1] is reported as 1 of 6.
For CC(C)(C)c1cc(C(O)(C(F)(F)F)C(F)(F)F)c(S)c(C(O)(C(F)(F)F)C(F)(F)F)c1, the survivor count (dose: 50.0 mg/kg/injection, schedule: Q01DX005 (ip), vehicle: suspension in saline) was 2 of 6, the survivor count (dose: 100.0 mg/kg/injection, schedule: Q01DX005 (ip), vehicle: suspension in saline) was 0 of 6 and the survivor count (dose: 200.0 mg/kg/injection, schedule: Q01DX005 (ip), vehicle: suspension in saline) was 0 of 6.
For C[n+]1c(/C=C2/SC=C(c3ccccc3)S2)ccc2ccccc21, the survivor count (dose: 3.12 mg/kg/injection, schedule: Q04DX002 (ip), vehicle: saline with Tween-80) was 3 of 6, the survivor count (dose: 12.5 mg/kg/injection, schedule: Q04DX002 (ip), vehicle: saline with Tween-80) was 0 of 6 and the survivor count (dose: 25.0 mg/kg/injection, schedule: Q04DX002 (ip), vehicle: saline with Tween-80) was 0 of 6. The survivor count (dose: 50.0 mg/kg/injection, schedule: Q04DX002 (ip), vehicle: saline with Tween-80) was 0 of 6.
